Some targets named below: GFP-USP7 S18E (UniProt Q93009); GFP-USP7 S18A (UniProt Q93009); GFP-USP7 WT (UniProt Q93009).
Common to all, as to assay: affinity purification with mass spectrometry
In assay [1] the target is GFP-TCEAL4 WT isoform-1 (human) (UniProt Q96EI5).
For assay [2] the target is unchanged. The source holds these as a separate data set.

Sequences of proteins named here, by UniProt entry; tags and fusion partners are left off. A change or cut given only in a name is not applied to a line headed by its entry.
UniProt Q93009: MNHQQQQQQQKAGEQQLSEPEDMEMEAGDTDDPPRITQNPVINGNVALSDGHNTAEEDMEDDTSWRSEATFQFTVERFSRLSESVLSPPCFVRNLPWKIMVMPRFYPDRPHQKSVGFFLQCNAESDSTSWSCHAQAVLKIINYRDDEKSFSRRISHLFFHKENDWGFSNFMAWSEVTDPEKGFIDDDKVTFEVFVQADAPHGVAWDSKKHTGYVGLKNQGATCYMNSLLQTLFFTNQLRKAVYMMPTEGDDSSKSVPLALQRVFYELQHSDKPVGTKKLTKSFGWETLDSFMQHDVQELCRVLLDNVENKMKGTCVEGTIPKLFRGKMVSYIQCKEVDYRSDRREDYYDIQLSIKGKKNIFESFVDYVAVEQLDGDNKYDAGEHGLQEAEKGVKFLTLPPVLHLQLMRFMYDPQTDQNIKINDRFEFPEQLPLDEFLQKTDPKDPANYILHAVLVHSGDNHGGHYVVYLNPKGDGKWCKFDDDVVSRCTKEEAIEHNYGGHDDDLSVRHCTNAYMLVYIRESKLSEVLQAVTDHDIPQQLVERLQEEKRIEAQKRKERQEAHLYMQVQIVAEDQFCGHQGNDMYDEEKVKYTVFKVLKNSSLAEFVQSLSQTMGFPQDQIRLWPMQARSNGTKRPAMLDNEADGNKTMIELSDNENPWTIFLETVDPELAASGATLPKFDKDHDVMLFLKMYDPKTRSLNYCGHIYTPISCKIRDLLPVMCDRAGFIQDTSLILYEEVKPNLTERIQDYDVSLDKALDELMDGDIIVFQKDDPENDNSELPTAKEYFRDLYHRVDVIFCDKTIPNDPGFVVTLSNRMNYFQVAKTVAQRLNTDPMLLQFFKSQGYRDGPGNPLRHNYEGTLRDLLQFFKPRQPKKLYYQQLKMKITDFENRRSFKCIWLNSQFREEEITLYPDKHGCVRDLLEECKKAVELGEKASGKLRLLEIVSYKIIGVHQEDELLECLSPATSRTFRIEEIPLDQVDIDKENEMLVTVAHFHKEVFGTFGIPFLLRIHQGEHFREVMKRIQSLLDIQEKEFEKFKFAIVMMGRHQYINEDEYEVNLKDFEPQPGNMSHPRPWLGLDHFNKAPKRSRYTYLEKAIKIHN
UniProt Q96EI5: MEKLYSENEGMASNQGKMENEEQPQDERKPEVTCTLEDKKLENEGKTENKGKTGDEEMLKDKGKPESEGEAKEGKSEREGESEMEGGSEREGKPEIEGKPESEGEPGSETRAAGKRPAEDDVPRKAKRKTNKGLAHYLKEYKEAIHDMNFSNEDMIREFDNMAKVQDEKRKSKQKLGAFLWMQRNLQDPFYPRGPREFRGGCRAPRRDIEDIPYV
UniProt Q13257: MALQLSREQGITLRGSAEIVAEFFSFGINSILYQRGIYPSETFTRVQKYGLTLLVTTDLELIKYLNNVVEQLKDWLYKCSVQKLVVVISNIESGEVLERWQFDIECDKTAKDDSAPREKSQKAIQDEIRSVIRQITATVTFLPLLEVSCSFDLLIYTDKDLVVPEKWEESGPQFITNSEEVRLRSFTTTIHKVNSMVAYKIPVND
UniProt O43684: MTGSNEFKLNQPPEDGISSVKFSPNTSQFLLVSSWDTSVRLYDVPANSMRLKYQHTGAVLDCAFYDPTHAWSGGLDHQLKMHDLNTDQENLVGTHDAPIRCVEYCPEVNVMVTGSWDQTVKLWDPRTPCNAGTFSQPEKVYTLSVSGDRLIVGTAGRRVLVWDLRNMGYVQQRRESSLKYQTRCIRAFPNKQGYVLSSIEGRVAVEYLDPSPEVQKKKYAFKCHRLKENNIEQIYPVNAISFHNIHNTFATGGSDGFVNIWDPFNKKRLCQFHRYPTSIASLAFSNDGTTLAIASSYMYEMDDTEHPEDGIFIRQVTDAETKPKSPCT

Read-outs that look alike come from different tables or passages of the source. No constants are given. Whether binding was seen depends on the method and setting. Binding seen in cells or lysates may run through a third protein. A yes stands for co-enrichment or nearness to the bait. Other partners may have been found.

Among the data in article doi:10.1101/2021.07.07.451439 are binding values, retold here.

Turning to “MAD2 (endogenous) (from UniProt Q13257 1-205)”, the binding result in assay [1] is on record as “binds”.

Take “BUB3 (endogenous) (from UniProt O43684 1-328)”: the binding result in assay [1] was “binds”.

B1: PJA1 (endogenous) (protein, UniProt Q8NG27 1-643)
chain: MGQESSKPVWPNPTGGYQSNTGRRYGRRHAYVSFRPPTSQRERIASQRKTNSEVPMHRSAPSQTTKRSRSPFSTTRRSWDDSESSGTNLNIDNEDYSRYPPREYRASGSRRGMAYGHIDSYGADDSEEEGAGPVERPPVRGKTGKFKDDKLYDPEKGARSLAGPPPHFSSFSRDVREERDKLDPVPAARCSASRADFLPQSSVASQSSSEGKLATKGDSSERERREQNLPARPSRAPVSICGGGENTSKSAEEPVVRPKIRNLASPNCVKPKIFFDTDDDDDMPHSTSRWRDTANDNEGHSDGLARRGRGESSSGYPEPKYPEDKREARSDQVKPEKVPRRRRTMADPDFWTHSDDYYKYCDEDSDSDKEWIAALRRKYRSREQTLSSSGESWETLPGKEEREPPQAKVSASTGTSPGPGASASAGAGAGASAGSNGSNYLEEVREPSLQEEQASLEEGEIPWLQYHENDSSSEGDNDSGHELMQPGVFMLDGNNNLEDDSSVSEDLEVDWSLFDGFADGLGVAEAISYVDPQFLTYMALEERLAQAMETALAHLESLAVDVEVANPPASKESIDALPEILVTEDHGAVGQEMCCPICCSEYVKGEVATELPCHHYFHKPCVSIWLQKSGTCPVCRCMFPPPL
In the case of B1, the binding result with GFP-USP7 S18E was “binds”.

B2: USP15 (endogenous) (enzyme, UniProt Q9Y4E8 1-981)
chain: MAEGGAADLDTQRSDIATLLKTSLRKGDTWYLVDSRWFKQWKKYVGFDSWDKYQMGDQNVYPGPIDNSGLLKDGDAQSLKEHLIDELDYILLPTEGWNKLVSWYTLMEGQEPIARKVVEQGMFVKHCKVEVYLTELKLCENGNMNNVVTRRFSKADTIDTIEKEIRKIFSIPDEKETRLWNKYMSNTFEPLNKPDSTIQDAGLYQGQVLVIEQKNEDGTWPRGPSTPKSPGASNFSTLPKISPSSLSNNYNNMNNRNVKNSNYCLPSYTAYKNYDYSEPGRNNEQPGLCGLSNLGNTCFMNSAIQCLSNTPPLTEYFLNDKYQEELNFDNPLGMRGEIAKSYAELIKQMWSGKFSYVTPRAFKTQVGRFAPQFSGYQQQDCQELLAFLLDGLHEDLNRIRKKPYIQLKDADGRPDKVVAEEAWENHLKRNDSIIVDIFHGLFKSTLVCPECAKISVTFDPFCYLTLPLPMKKERTLEVYLVRMDPLTKPMQYKVVVPKIGNILDLCTALSALSGIPADKMIVTDIYNHRFHRIFAMDENLSSIMERDDIYVFEININRTEDTEHVIIPVCLREKFRHSSYTHHTGSSLFGQPFLMAVPRNNTEDKLYNLLLLRMCRYVKISTETEETEGSLHCCKDQNINGNGPNGIHEEGSPSEMETDEPDDESSQDQELPSENENSQSEDSVGGDNDSENGLCTEDTCKGQLTGHKKRLFTFQFNNLGNTDINYIKDDTRHIRFDDRQLRLDERSFLALDWDPDLKKRYFDENAAEDFEKHESVEYKPPKKPFVKLKDCIELFTTKEKLGAEDPWYCPNCKEHQQATKKLDLWSLPPVLVVHLKRFSYSRYMRDKLDTLVDFPINDLDMSEFLINPNAGPCRYNLIAVSNHYGGMGGGHYTAFAKNKDDGKWYYFDDSSVSTASEDQIVSKAAYVLFYQRQDTFSGTGFFPLDRETKGASAATGIPLESDEDSNDNDNDIENENCMHTN
Turning to B2, in assay [2], the binding result is reported as “binds”.

B3: MAGED4 (endogenous) (protein, UniProt Q96JG8 1-741)
chain: MAEGSFSVQSESYSVEDMDEGSDEVGEEEMVEGNDYEEFGAFGGYGTLTSFDIHILRAFGSLGPGLRILSNEPWELENPVLAQTLVEALQLDPETLANETAARAANVARAAASNRAARAAAAAARTAFSQVVASHRVATPQVSGEDTQPTTYAAEAQGPTPEPPLASPQTSQMLVTSKMAAPEAPATSAQSQTGSPAQEAATEGPSSACAFSQAPCAREVDANRPSTAFLGQNDVFDFTQPAGVSGMAFPRPKRPAPAQEAATEGPSAASGVPQTGPGREVAATRPKTTKSGKALAKTRWVEPQNVVAAAAAKAKMATSIPEPEGAAAATAQHSAEPWARMGGKRTKKSKHLDDEYESSEEERETPAVPPTWRASQPSLTVRAQLAPRPPMAPRSQIPSRHVLCLPPRNVTLLQERANKLVKYLMIKDYKKIPIKRADMLKDVIREYDEHFPEIIERATYTLEKKFGIHLKEIDKEEHLYILVCTRDSSARLLGKTKDTPRLSLLLVILGVIFMNGNRASEAVLWEALRKMGLRPGVRHPFLGDLRKLITDDFVKQKYLEYKKIPNSNPPEYEFLWGLRARHETSKMRVLRFIAQNQNRDPREWKAHFLEAVDDAFKTMDVDMAEEHARAQMRAQMNIGDEALIGRWSWDDIQVELLTWDEDGDFGDAWARIPFAFWARYHQYILNSNRANRRATWRAGVSSGTNGGASTSVLDGPSTSSTIRTRNAARAGASFFSWIQHR
In the case of B3, the binding entry in the assay with GFP-USP7 S18E, with GFP-USP7 S18A and with GFP-USP7 WT was “binds” throughout.

B4: MAGED1 (endogenous) (protein, UniProt Q9Y5V3 1-778)
chain: MAQKMDCGAGLLGFQAEASVEDSALLMQTLMEAIQISEAPPTNQATAAASPQSSQPPTANEMADIQVSAAAARPKSAFKVQNATTKGPNGVYDFSQAHNAKDVPNTQPKAAFKSQNATPKGPNAAYDFSQAATTGELAANKSEMAFKAQNATTKVGPNATYNFSQSLNANDLANSRPKTPFKAWNDTTKAPTADTQTQNVNQAKMATSQADIETDPGISEPDGATAQTSADGSQAQNLESRTIIRGKRTRKINNLNVEENSSGDQRRAPLAAGTWRSAPVPVTTQNPPGAPPNVLWQTPLAWQNPSGWQNQTARQTPPARQSPPARQTPPAWQNPVAWQNPVIWPNPVIWQNPVIWPNPIVWPGPVVWPNPLAWQNPPGWQTPPGWQTPPGWQGPPDWQGPPDWPLPPDWPLPPDWPLPTDWPLPPDWIPADWPIPPDWQNLRPSPNLRPSPNSRASQNPGAAQPRDVALLQERANKLVKYLMLKDYTKVPIKRSEMLRDIIREYTDVYPEIIERACFVLEKKFGIQLKEIDKEEHLYILISTPESLAGILGTTKDTPKLGLLLVILGVIFMNGNRASEAVLWEALRKMGLRPGVRHPLLGDLRKLLTYEFVKQKYLDYRRVPNSNPPEYEFLWGLRSYHETSKMKVLRFIAEVQKRDPRDWTAQFMEAADEALDALDAAAAEAEARAEARTRMGIGDEAVSGPWSWDDIEFELLTWDEEGDFGDPWSRIPFTFWARYHQNARSRFPQTFAGPIIGPGGTASANFAANFGAIGFFWVE
For the molecule B4, the binding result with GFP-USP7 S18E was “binds”.

B5: RAE1 (endogenous) (protein, UniProt P78406 1-368)
chain: MSLFGTTSGFGTSGTSMFGSATTDNHNPMKDIEVTSSPDDSIGCLSFSPPTLPGNFLIAGSWANDVRCWEVQDSGQTIPKAQQMHTGPVLDVCWSDDGSKVFTASCDKTAKMWDLSSNQAIQIAQHDAPVKTIHWIKAPNYSCVMTGSWDKTLKFWDTRSSNPMMVLQLPERCYCADVIYPMAVVATAERGLIVYQLENQPSEFRRIESPLKHQHRCVAIFKDKQNKPTGFALGSIEGRVAIHYINPPNPAKDNFTFKCHRSNGTNTSAPQDIYAVNGIAFHPVHGTLATVGSDGRFSFWDKDARTKLKTSEQLDQPISACCFNHNGNIFAYASSYDWSKGHEFYNPQKKNYIFLRNAAEELKPRNKK
B5: the binding entry in assay [2] is given as “binds”.
